The values that follow come from publication PMC8049286.

Amino acid sequences for entries named in this document (tags omitted). A change or cut given only in a name is not applied to a line headed by its entry. Chains listed by the source or under a name are the forms on record and can include a tag or linker. Residues count along the entry.
human ORP3 ORD (OSBP-related domain, residues 504-887) (Q9H4L5, form named): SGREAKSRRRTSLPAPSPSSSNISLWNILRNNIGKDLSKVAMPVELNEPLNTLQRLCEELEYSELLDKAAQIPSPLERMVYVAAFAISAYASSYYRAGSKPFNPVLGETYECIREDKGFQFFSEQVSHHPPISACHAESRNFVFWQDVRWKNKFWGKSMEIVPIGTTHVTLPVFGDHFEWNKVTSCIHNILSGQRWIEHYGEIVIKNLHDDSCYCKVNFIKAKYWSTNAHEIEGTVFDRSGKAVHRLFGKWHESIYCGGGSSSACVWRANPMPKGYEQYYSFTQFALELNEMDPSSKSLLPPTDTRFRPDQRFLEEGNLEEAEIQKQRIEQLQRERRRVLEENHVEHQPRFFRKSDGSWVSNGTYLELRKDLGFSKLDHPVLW

These are yes or no findings as the source states them, for the method shown.

Assay [1] deals with human ORP3 ORD (OSBP-related domain, residues 504-887) (human) (UniProt Q9H4L5). In words: SEC; Superdex 200, 20 mM Tris-HCl pH 8.0, 150 mM NaCl; purified recombinant ORP3 ORD; both purified. In general terms: SEC sorts molecules by how far they enter the pores of the column.
Assay [2] shares this target. As to the kind of experiment: crystal structure; apo form and PI(4)P diC8 complex, space group P3(1)21, two molecules in the asymmetric unit related by two-fold non-crystallographic symmetry; both purified.

Turning to “human ORP3 ORD (OSBP-related domain, residues 504-887) (from UniProt Q9H4L5 504-887) (domain or fragment)”, the binding result in assay [1] and in assay [2] was “no binding” in each case.
